Data as given in PubChem BioAssay AID1159578 (Peter MacCallum Cancer Centre, 2015)
Screen: 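Genome-wide hunt for genes controlling movement of lymphatic endothelial cells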 (primary screen). Cells: human lymphatic endothelial cells. Reagent: siRNA pool against human genes, 40 nM. Timing: 48 h after transfection. Measured: 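High-content imaging of dye-stained cells in a scratch assay measures filled wound area and nuclei per well; duplicate means given as ratio to mock and robust z-score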. Direction: migration robust z-score: higher = faster migration into the scratch; migration relative to mock: higher = more scratch area covered than mock; nuclei per well: higher = more cells in the well. Call rule: 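Migration changed when robust z exceeds 2 or falls below -2 and mean nuclei number is at least 3300; otherwise not called changed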. Meaning of the calls: active = migration changed; inactive = no migration change, or too few cells.
Here is a random part of about 18,000 reagents. About 1,030 of them (5.7%) were called active. 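Inactive calls also include pools with fewer than 3300 nuclei, whose migration was not assessed.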 Raw values vary from plate to plate and are shown uncorrected.

no.	Target gene	PubChem SID	migration robust z-score	migration class with cell-count check	migration relative to mock	nuclei per well, duplicate mean	activity call
1	VWA2	SID255365104	-1.49	migration z between -2 and 2; enough cells	0.5	5376	inactive
2	KLF17	SID255362783	-0.36	migration z between -2 and 2; enough cells	0.8	6719	inactive
3	JAML	SID255362497	0	migration z between -2 and 2; enough cells	0.88	6038	inactive
4	SYNGR3	SID255354071	2.02	migration z above 2; enough cells	1.4	6060	active
5	ZNF32	SID255353203	-0.26	migration z between -2 and 2; enough cells	0.82	6500	inactive
6	CCDC38	SID255362508	-1.57	migration z between -2 and 2; enough cells	0.47	4538	inactive
7	KLF1	SID255355268	-0.34	migration z between -2 and 2; enough cells	0.74	4778	inactive
8	PPP2R3A	SID255351749	-0.5	migration z between -2 and 2; enough cells	0.71	5090	inactive
9	GML	SID255349928	-0.72	migration z between -2 and 2; enough cells	0.7	4408	inactive
10	KRABD2	SID255362629	-1.3	migration z between -2 and 2; enough cells	0.55	6311	inactive
11	DPP8	SID255358235	-0.5	migration z between -2 and 2; enough cells	0.71	5150	inactive
12	MAD2L1BP	SID255354395	0.76	migration z between -2 and 2; enough cells	1.07	6382	inactive
13	DAOA	SID255364612	1.2	migration z between -2 and 2; enough cells	1.2	5882	inactive
14	REEP5	SID255353333	-0.07	under 3300 nuclei; migration not judged	0.86	3272	inactive
15	ICAM5	SID255352879	-0.19	migration z between -2 and 2; enough cells	0.84	5666	inactive
16	UTS2	SID255355438	1.59	migration z between -2 and 2; enough cells	1.29	5326	inactive
17	UBE2V1	SID255353040	2.39	migration z above 2; enough cells	1.26	6743	active
18	SLC17A6	SID255359251	1.12	migration z between -2 and 2; enough cells	1.02	5424	inactive
19	SLC1A3	SID255352439	-2.15	migration z below -2; enough cells	0.39	3756	active
20	LAMB1	SID255350719	-0.87	migration z between -2 and 2; enough cells	0.67	5286	inactive
21	BAK1	SID255348505	-1.82	migration z between -2 and 2; enough cells	0.45	5281	inactive
22	EFCAB11	SID255361788	-1.02	migration z between -2 and 2; enough cells	0.62	5799	inactive
23	GOLGB1	SID255349963	0.22	migration z between -2 and 2; enough cells	0.94	5594	inactive
24	TNR	SID255352927	0	migration z between -2 and 2; enough cells	0.81	5700	inactive
25	AGO4	SID255363949	-0.39	migration z between -2 and 2; enough cells	0.73	5626	inactive
26	ELOVL1	SID255360017	0.76	migration z between -2 and 2; enough cells	1.08	5909	inactive
27	GGNBP2	SID255360549	0.62	migration z between -2 and 2; enough cells	1.04	4774	inactive
28	SLC60A1	SID255363394	0.45	migration z between -2 and 2; enough cells	1	5088	inactive
29	PPP1R27	SID255362388	1.02	migration z between -2 and 2; enough cells	1.15	5810	inactive
30	PPP4R3B	SID255359348	-1.44	migration z between -2 and 2; enough cells	0.52	6432	inactive
31	IRGQ	SID255362699	0.52	migration z between -2 and 2; enough cells	1.02	7017	inactive
32	ARHGEF15	SID255355856	1.08	migration z between -2 and 2; enough cells	1.17	5686	inactive
33	TRMT13	SID255358037	-0.11	migration z between -2 and 2; enough cells	0.86	4222	inactive
34	CPA5	SID255362099	-0.2	migration z between -2 and 2; enough cells	0.76	5986	inactive
35	SNTB2	SID255352562	-0.1	migration z between -2 and 2; enough cells	0.86	5976	inactive
36	CXCR5	SID255348548	0.52	migration z between -2 and 2; enough cells	0.9	6454	inactive
37	DOK4	SID255358799	2.33	migration z above 2; enough cells	1.49	5102	active
38	VCX	SID255356830	0.24	migration z between -2 and 2; enough cells	0.95	6662	inactive
39	PPP2R5C	SID255351753	0	migration z between -2 and 2; enough cells	0.8	4932	inactive
40	MPV17L2	SID255361500	-1.09	migration z between -2 and 2; enough cells	0.6	6687	inactive
41	UGT2B7	SID255353060	-0.06	migration z between -2 and 2; enough cells	0.87	5450	inactive
42	PTPRE	SID255351959	-1.35	migration z between -2 and 2; enough cells	0.54	3913	inactive
43	UTRN	SID255353086	0.94	migration z between -2 and 2; enough cells	0.98	5692	inactive
44	GPRASP3	SID255360823	-0.58	migration z between -2 and 2; enough cells	0.74	6993	inactive
45	KLRK1	SID255355869	-1.21	migration z between -2 and 2; enough cells	0.56	5440	inactive
46	ERICH1	SID255363632	0.36	migration z between -2 and 2; enough cells	0.98	5946	inactive
47	SHKBP1	SID255362036	1.51	migration z between -2 and 2; enough cells	1.28	5811	inactive
48	LRRC8E	SID255360663	1.28	migration z between -2 and 2; enough cells	1.21	5991	inactive
49	RALGAPA2	SID255359328	0.69	migration z between -2 and 2; enough cells	1.06	7022	inactive
50	ASGR1	SID255348420	0.55	migration z between -2 and 2; enough cells	0.91	4786	inactive
51	SPINK5	SID255355515	-1.25	migration z between -2 and 2; enough cells	0.56	4370	inactive
52	ODF2	SID255351342	-1.09	migration z between -2 and 2; enough cells	0.6	5578	inactive
53	NOVA1	SID255351277	-1.14	migration z between -2 and 2; enough cells	0.6	5778	inactive
54	UCP1	SID255353050	0.29	migration z between -2 and 2; enough cells	0.96	6702	inactive
55	MAPK8IP3	SID255356032	-0.78	migration z between -2 and 2; enough cells	0.68	4820	inactive
56	BTLA	SID255363514	-0.42	migration z between -2 and 2; enough cells	0.77	5492	inactive
57	TRPM2	SID255352975	-0.1	under 3300 nuclei; migration not judged	0.78	2856	inactive
58	MGAT5	SID255350954	1.38	migration z between -2 and 2; enough cells	1.07	5256	inactive
59	XIAP	SID255348340	0.91	migration z between -2 and 2; enough cells	0.98	6442	inactive
60	KLK4	SID255354418	-1.03	migration z between -2 and 2; enough cells	0.6	5216	inactive
61	C1D	SID255355078	0.6	migration z between -2 and 2; enough cells	1.04	5924	inactive
62	DPP6	SID255349357	-0.83	migration z between -2 and 2; enough cells	0.64	5910	inactive
63	PTPRA	SID255351955	2.36	migration z above 2; enough cells	1.26	4424	active
64	IFT88	SID255353393	1.16	migration z between -2 and 2; enough cells	1.18	7178	inactive
65	STX16	SID255353730	2.34	migration z above 2; enough cells	1.49	5814	active
66	SETD4	SID255357968	1.52	migration z between -2 and 2; enough cells	1.28	5852	inactive
67	LZTFL1	SID255358098	1.14	migration z between -2 and 2; enough cells	1.18	5807	inactive
68	ME3	SID255355405	-0.29	migration z between -2 and 2; enough cells	0.75	5278	inactive
69	YAF2	SID255354839	1.25	migration z between -2 and 2; enough cells	1.21	6858	inactive
70	MAGI1	SID255354127	-2.99	under 3300 nuclei; migration not judged	0.23	3046	inactive
71	TANGO2	SID255362825	-4.13	under 3300 nuclei; migration not judged	-0.16	1326	inactive
72	TCTN2	SID255360527	0.48	migration z between -2 and 2; enough cells	1.01	6393	inactive
73	COL24A1	SID255364502	-0.7	migration z between -2 and 2; enough cells	0.7	5678	inactive

Quoted from above for reference:
no.	Target gene	PubChem SID	migration robust z-score	migration class with cell-count check	migration relative to mock	nuclei per well, duplicate mean	activity call
19	SLC1A3	SID255352439	-2.15	migration z below -2; enough cells	0.39	3756	active
20	LAMB1	SID255350719	-0.87	migration z between -2 and 2; enough cells	0.67	5286	inactive
21	BAK1	SID255348505	-1.82	migration z between -2 and 2; enough cells	0.45	5281	inactive
22	EFCAB11	SID255361788	-1.02	migration z between -2 and 2; enough cells	0.62	5799	inactive
23	GOLGB1	SID255349963	0.22	migration z between -2 and 2; enough cells	0.94	5594	inactive
24	TNR	SID255352927	0	migration z between -2 and 2; enough cells	0.81	5700	inactive
25	AGO4	SID255363949	-0.39	migration z between -2 and 2; enough cells	0.73	5626	inactive
26	ELOVL1	SID255360017	0.76	migration z between -2 and 2; enough cells	1.08	5909	inactive
